Experimental data taken from US12281225B2, “Process for preparing stable polymers containing vinylimidazole” (BASF SE, priority 2018, dated 2025).
At least one compound was matched to its structure with a doubt left.

Test: Iodine color number according to DIN 6162:2014-09
Type: physicochemical
[1] = Polymer P5 (HP56) with stabilizer

CCCCCCCCCCCCCCCC[n+]1ccccc1 [CPC, cetylpyridinium chloride]
Iodine color number, 60 d 40° C. (Polymer P1 with stabilizer): 2.9
Iodine color number, start (Polymer P1 with stabilizer): 2.6
Iodine color number, 60 d 40° C. (Polymer P2 with stabilizer): 3.2
Iodine color number, start (Polymer P2 with stabilizer): 3.0
Iodine color number, 60 d 40° C. (Polymer P3 with stabilizer): 3.4
Iodine color number, start (Polymer P3 with stabilizer): 3.1
Iodine color number, 60 d 40° C. (Polymer P4 with stabilizer): 3.2
Iodine color number, start (Polymer P4 with stabilizer): 3.1
Iodine color number, 60 d 40° C. [1]: 3.4
Iodine color number, start [1]: 3.4
Iodine color number, 60 d 40° C. (Polymer P6 with stabilizer): 3.6
Iodine color number, start (Polymer P6 with stabilizer): 3.4
Iodine color number, 60 d 40° C. (Polymer P7 with stabilizer): 3.6
Iodine color number, start (Polymer P7 with stabilizer): 3.4
Iodine color number, 60 d 40° C. (Polymer P8 with stabilizer): 3.6
Iodine color number, start (Polymer P8 with stabilizer): 3.3
Iodine color number, 60 d 40° C. (Polymer P9 with stabilizer): 4.2
Iodine color number, start (Polymer P9 with stabilizer): 3.9
